Measurements published in publication PMC2928751.
Results are given in words; binding and its absence hold for the method and conditions named. In cells and extracts the contact can be indirect. Some binding calls cover weakened binding; strength is not graded here.

Protein sequences, listed by entry. Tags and fused reporters are not part of them. Lines headed by an entry give the natural chain unless they say otherwise; changes in a name come on top. Chains listed by the source or under a name are the forms on record and can include a tag or linker.
GST-JNK3 (P53779, form named): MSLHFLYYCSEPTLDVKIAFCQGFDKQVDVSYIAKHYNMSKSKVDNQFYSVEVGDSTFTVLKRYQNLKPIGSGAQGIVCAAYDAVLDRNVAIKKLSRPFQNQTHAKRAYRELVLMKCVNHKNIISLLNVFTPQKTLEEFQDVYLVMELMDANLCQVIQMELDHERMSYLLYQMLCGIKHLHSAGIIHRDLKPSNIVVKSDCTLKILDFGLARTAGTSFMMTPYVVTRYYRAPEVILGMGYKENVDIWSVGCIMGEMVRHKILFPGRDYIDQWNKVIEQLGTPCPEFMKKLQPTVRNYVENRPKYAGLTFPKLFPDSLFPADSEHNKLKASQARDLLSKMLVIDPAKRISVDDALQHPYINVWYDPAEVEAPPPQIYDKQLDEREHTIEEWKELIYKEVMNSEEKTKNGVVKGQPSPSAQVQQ
GST-JNK1 (P45983, form named): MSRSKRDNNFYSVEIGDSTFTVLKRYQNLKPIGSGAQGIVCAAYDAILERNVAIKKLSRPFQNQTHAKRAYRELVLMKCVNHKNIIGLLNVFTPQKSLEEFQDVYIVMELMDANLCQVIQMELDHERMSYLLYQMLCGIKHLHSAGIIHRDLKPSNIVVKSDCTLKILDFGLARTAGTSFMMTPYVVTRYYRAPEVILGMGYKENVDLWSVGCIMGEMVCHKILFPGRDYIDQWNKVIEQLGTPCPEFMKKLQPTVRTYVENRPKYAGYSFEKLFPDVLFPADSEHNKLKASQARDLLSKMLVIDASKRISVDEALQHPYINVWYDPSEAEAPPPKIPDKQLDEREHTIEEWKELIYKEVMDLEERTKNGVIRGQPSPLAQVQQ

Columns and labels:
Assay in all cases: pull-down; GST fusion protein (or GST alone) bound to glutathione-Sepharose beads; ~1 pmol 35S-labelled in vitro translated partner, partially purified by ammonium sulfate precipitation; binding buffer 20 mM Tris-HCl pH 7.5, 125 mM KOAc, 0.5 mM EDTA, 1 mM DTT, 0.1% Tween20, 12.5% glycerol; 30°C 15 min, then 30 min at room temperature; only the target purified
GST-JNK2 (human) = GST-JNK2 (human) (UniProt P45984)
GST-JNK3 (human) = GST-JNK3 (human) (UniProt P53779)
GST-JNK1 (human) = GST-JNK1 (human) (UniProt P45983)

binding (GST-JNK2 (human)): binds
binding (GST-JNK3 (human)): binds
binding (GST-JNK1 (human)): binds
B1: Gli1(68-232), wild type (domain or fragment, UniProt P08151 68-232)
chain: FSSPRSAVKLTKKRALSISPLSDASLDLQTVIRTSPSSLVAFINSRCTSPGGSYGHLSIGTMSPSLGFPAQMNHQKGPSPSFGVQPCGPHDSARGGMIPHPQSRGPFPTCQLKSELDMLVGKCREEPLEGDMSSPNSTGIQDPLLGMLDGREDLEREEKREPESV
modifications: [35S]-methionine labelled
